From paper PMC3667794
These are yes or no findings as the source states them, for the method shown. In cells and extracts the contact can be indirect. Some entries that bind do so weakly or less than the wild type.

The chains behind the UniProt entries cited, without tags or fusion partners.
UniProt P03129: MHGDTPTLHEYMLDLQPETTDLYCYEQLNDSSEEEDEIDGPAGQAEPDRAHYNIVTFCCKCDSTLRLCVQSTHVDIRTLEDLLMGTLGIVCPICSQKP

B1: pRb (cell cycle control protein, cellular/endogenous) (protein, UniProt P06400 1-928)
chain: MPPKTPRKTAATAAAAAAEPPAPPPPPPPEEDPEQDSGPEDLPLVRLEFEETEEPDFTALCQKLKIPDHVRERAWLTWEKVSSVDGVLGGYIQKKKELWGICIFIAAVDLDEMSFTFTELQKNIEISVHKFFNLLKEIDTSTKVDNAMSRLLKKYDVLFALFSKLERTCELIYLTQPSSSISTEINSALVLKVSWITFLLAKGEVLQMEDDLVISFQLMLCVLDYFIKLSPPMLLKEPYKTAVIPINGSPRTPRRGQNRSARIAKQLENDTRIIEVLCKEHECNIDEVKNVYFKNFIPFMNSLGLVTSNGLPEVENLSKRYEEIYLKNKDLDARLFLDHDKTLQTDSIDSFETQRTPRKSNLDEEVNVIPPHTPVRTVMNTIQQLMMILNSASDQPSENLISYFNNCTVNPKESILKRVKDIGYIFKEKFAKAVGQGCVEIGSQRYKLGVRLYYRVMESMLKSEEERLSIQNFSKLLNDNIFHMSLLACALEVVMATYSRSTSQNLDSGTDLSFPWILNVLNLKAFDFYKVIESFIKAEGNLTREMIKHLERCEHRIMESLAWLSDSPLFDLIKQSKDREGPTDHLESACPLNLPLQNNHTAADMYLSPVRSPKKKGSTTRVNSTANAETQATSAFQTQKPLKSTSLSLFYKKVYRLAYLRLNTLCERLLSEHPELEHIIWTLFQHTLQNEYELMRDRHLDQIMMCSMYGICKVKNIDLKFKIIVTAYKDLPHAVQETFKRVLIKEEEYDSIIVFYNSVFMQRLKTNILQYASTRPPTLSPIPHIPRSPYKFPSSPLRIPGGNIYISPLKSPYKISEGLPTPTKMTPRSRILVSIGESFGTSEKFQKINQMVCNSDRVLKRSAEGSNPPKPLKKLRFDIEGSDEADGSKHLPGESKFQQKLAEMTSTRTRMQKQKMNDSMDTSNKEEK

Legend:
[1] = molecular target: T1, pRb (cell cycle control protein, cellular/endogenous) (human (endogenous in HaCaT and CaSki)) (UniProt P06400); test: co-IP
T1 sequence: B1 chain

[2] = molecular target: GST-E7 (HPV16 E7 oncoprotein, wild type) (HPV16) (UniProt P03129); test: pull-down; only the target purified
[3] = molecular target: HPV16 E7 (endogenous in CaSki cells) (HPV16 (endogenous in CaSki)) (UniProt P03129); test: co-IP

| Molecule | binding [1] | binding [2] | binding [3] |
| --- | --- | --- | --- |
| HPV16 E7 (endogenous in CaSki cells) (from UniProt P03129 1-98) | binds | – | – |
| B1 | – | binds | binds |
